Measurements reported in paper PMC2868895.
No constants are given. Whether binding was seen depends on the method and setting. In cells and extracts the contact can be indirect. Binding calls can cover weak binding; strength is not graded here.

Target: T1, p107 (human (endogenous in Molt 4)) (UniProt P28749)
T1 sequence: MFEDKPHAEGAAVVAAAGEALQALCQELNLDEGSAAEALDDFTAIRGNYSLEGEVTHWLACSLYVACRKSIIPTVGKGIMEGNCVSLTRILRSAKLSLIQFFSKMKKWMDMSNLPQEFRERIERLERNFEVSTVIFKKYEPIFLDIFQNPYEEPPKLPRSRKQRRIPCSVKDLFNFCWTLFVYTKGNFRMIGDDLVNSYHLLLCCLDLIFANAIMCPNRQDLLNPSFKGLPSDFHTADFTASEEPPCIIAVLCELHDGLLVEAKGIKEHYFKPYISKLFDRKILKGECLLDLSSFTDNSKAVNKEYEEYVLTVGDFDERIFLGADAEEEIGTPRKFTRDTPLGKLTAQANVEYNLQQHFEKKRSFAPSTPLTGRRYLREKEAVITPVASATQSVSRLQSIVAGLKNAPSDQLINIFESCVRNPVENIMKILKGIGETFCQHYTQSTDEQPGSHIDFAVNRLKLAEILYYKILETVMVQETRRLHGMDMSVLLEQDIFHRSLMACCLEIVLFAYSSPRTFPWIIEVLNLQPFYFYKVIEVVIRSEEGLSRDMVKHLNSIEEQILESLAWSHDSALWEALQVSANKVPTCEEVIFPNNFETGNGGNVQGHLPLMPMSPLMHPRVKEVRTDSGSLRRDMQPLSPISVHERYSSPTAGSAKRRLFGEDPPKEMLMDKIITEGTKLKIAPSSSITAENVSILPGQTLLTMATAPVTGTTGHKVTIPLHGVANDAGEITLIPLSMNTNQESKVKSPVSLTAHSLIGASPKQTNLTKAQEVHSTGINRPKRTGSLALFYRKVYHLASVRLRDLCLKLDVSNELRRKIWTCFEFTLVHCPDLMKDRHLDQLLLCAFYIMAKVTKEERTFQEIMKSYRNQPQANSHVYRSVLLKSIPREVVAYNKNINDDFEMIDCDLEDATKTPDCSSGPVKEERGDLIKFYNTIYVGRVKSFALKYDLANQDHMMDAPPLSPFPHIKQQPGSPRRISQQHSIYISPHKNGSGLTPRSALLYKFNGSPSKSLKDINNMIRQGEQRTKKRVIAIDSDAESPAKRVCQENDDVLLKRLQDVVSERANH
Assay: co-IP; lysates of Rat2, MEF or 3T3 cells expressing all five JCV early proteins or tAg only, incubated overnight with Molt 4 extracts; IP with anti-p107 antibody, Western blot with a cocktail of anti-T monoclonal antibodies

Substance	binding
JC virus T'135 protein	binds
JC virus T'136 protein	binds
JC virus T'165 protein	binds weakly
JC virus small tumor antigen mutant C157A	binds
JC virus small tumor antigen mutant P99A	binds
